No constants are given. Whether binding was seen depends on the method and setting. In cells and extracts the contact can be indirect. Some entries that bind do so weakly or less than the wild type. Where a sequence is shown, tags or fusion partners need not be part of it.
Molecular target: GRP78-Flag (mouse GRP78 with a Flag-tag) (mouse) (UniProt P20029)
Experiment: co-IP; 293FT cells stably expressing GRP78-Flag, transiently transfected with untagged PZP for 48 h; lysate incubated with anti-DYKDDDDK (Flag) affinity gel overnight; western blot

Amino acid sequences for entries named in this document (tags omitted). Residues count along the entry.
UniProt P20029, residues 20-655: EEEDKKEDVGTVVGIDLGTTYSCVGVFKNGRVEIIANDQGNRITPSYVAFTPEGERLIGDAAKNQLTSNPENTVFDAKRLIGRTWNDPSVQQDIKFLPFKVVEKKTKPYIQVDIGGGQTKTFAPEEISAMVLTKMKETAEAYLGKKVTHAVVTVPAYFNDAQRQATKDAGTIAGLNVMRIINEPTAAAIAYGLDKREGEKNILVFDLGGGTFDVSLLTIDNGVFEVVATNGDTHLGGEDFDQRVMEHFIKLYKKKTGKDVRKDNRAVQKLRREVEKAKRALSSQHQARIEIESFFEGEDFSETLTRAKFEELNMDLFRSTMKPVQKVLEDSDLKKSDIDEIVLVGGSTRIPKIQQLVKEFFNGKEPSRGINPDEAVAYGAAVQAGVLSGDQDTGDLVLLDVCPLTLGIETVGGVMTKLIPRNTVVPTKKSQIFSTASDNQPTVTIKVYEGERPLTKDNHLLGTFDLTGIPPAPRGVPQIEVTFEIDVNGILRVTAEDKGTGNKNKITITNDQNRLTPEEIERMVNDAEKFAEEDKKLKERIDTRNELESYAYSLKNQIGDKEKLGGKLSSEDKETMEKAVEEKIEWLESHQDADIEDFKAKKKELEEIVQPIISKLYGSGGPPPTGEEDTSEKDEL

- binding: binds
B1: PZP, untagged, overexpressed in 293FT cells (protein, UniProt Q61838 25-1495)
chain: ATAKPQYVVLVPSEVYSGVPEKACVSLNHVNETVMLSLTLEYAMQQTKLLTDQAVDKDSFYCSPFTISGSPLPYTFITVEIKGPTQRFIKKKSIQIIKAESPVFVQTDKPIYKPGQIVKFRVVSVDISFRPLNETFPVVYIETPKRNRIFQWQNIHLAGGLHQLSFPLSVEPALGIYKVVVQKDSGKKIEHSFEVKEYVLPKFEVIIKMQKTMAFLEEELPITACGVYTYGKPVPGLVTLRVCRKYSRYRSTCHNQNSMSICEEFSQQADDKGCFRQVVKTKVFQLRQKGHDMKIEVEAKIKEEGTGIELTGIGSCEIANALSKLKFTKVNTNYRPGLPFSGQVLLVDEKGKPIPNKNITSVVSPLGYLSIFTTDEHGLANISIDTSNFTAPFLRVVVTYKQNHVCYDNWWLDEFHTQADHSATLVFSPSQSYIQLELVFGTLACGQTQEIRIHYLLNEDIMKNEKDLTFYYLIKARGSIFNLGSHVLSLEQGNMKGVFSLPIQVEPGMAPEAQLLIYAILPNEELVADAQNFEIEKCFANKVNLSFPSAQSLPASDTHLKVKAAPLSLCALTAVDQSVLLLKPEAKLSPQSIYNLLPGKTVQGAFFGVPVYKDHENCISGEDITHNGIVYTPKHSLGDNDAHSIFQSVGINIFTNSKIHKPRFCQEFQHYPAMGGVAPQALAVAASGPGSSFRAMGVPMMGLDYSDEINQVVEVRETVRKYFPETWIWDLVPLDVSGDGELAVKVPDTITEWKASAFCLSGTTGLGLSSTISLQAFQPFFLELTLPYSVVRGEAFTLKATVLNYMSHCIQIRVDLEISPDFLAVPVGGHENSHCICGNERKTVSWAVTPKSLGEVNFTATAEALQSPELCGNKLTEVPALVHKDTVVKSVIVEPEGIEKEQTYNTLLCPQDTELQDNWSLELPPNVVEGSARATHSVLGDILGSAMQNLQNLLQMPYGCGEQNMVLFVPNIYVLNYLNETQQLTEAIKSKAINYLISGYQRQLNYQHSDGSYSTFGNHGGGNTPGNTWLTAFVLKAFAQAQSHIFIEKTHITNAFNWLSMKQKENGCFQQSGYLLNNAMKGGVDDEVTLSAYITIALLEMPLPVTHSAVRNALFCLETAWASISQSQESHVYTKALLAYAFALAGNKAKRSELLESLNKDAVKEEDSLHWQRPGDVQKVKALSFYQPRAPSAEVEMTAYVLLAYLTSESSRPTRDLSSSDLSTASKIVKWISKQQNSHGGFSSTQDTVVALQALSKYGAATFTRSQKEVLVTIESSGTFSKTFHVNSGNRLLLQEVRLPDLPGNYVTKGSGSGCVYLQTSLKYNILPVADGKAPFALQVNTLPLNFDKAGDHRTFQIRINVSYTGERPSSNMVIVDVKMVSGFIPMKPSVKKLQDQPNIQRTEVNTNHVLIYIEKLTNQTLGFSFAVEQDIPVKNLKPAPIKVYDYYETDEFTVEEYSAPFSDGSEQGNA
